Laboratory results: the supplement of paper PMC10849652
The list shows a part of the results.

Protein sequences, listed by entry. Tags and fused reporters are not part of them. Lines headed by an entry give the natural chain unless they say otherwise; changes in a name come on top.
UniProt P47756, whole entry, looked up: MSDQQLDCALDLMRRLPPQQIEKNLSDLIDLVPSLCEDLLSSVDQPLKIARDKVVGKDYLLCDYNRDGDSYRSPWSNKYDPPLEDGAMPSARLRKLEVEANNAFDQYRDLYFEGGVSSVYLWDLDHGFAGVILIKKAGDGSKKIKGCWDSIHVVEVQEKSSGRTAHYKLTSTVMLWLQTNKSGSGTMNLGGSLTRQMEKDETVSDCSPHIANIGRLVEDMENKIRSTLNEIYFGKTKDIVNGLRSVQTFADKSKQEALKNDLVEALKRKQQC
UniProt Q8N5S9: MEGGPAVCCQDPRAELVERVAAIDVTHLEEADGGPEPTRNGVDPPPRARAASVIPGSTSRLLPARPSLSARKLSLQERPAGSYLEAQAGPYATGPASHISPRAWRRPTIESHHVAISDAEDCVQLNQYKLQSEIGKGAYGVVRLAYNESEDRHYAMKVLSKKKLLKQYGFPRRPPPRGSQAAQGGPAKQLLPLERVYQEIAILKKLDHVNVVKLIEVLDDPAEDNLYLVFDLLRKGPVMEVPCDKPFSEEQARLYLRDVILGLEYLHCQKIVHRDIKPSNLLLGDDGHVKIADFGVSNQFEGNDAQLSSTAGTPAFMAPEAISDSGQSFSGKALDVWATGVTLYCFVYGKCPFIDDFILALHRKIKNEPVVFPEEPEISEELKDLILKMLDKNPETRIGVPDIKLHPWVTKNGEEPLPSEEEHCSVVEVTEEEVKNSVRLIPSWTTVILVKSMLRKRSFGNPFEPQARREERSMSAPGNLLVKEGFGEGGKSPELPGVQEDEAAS
UniProt O43709: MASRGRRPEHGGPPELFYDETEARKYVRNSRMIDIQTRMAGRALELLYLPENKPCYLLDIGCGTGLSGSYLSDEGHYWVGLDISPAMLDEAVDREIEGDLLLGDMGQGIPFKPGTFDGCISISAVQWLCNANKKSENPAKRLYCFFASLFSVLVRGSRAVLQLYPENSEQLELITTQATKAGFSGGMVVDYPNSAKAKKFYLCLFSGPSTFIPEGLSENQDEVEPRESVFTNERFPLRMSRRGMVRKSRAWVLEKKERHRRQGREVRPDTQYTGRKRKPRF
UniProt O95873: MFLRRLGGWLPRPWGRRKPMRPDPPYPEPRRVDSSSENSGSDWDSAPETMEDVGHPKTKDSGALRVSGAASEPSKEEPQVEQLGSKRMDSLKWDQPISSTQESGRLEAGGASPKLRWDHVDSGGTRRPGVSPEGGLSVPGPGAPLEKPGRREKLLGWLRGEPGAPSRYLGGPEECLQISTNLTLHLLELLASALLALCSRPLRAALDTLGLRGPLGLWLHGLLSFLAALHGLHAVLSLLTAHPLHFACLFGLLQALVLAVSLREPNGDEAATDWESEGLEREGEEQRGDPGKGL
UniProt P05937: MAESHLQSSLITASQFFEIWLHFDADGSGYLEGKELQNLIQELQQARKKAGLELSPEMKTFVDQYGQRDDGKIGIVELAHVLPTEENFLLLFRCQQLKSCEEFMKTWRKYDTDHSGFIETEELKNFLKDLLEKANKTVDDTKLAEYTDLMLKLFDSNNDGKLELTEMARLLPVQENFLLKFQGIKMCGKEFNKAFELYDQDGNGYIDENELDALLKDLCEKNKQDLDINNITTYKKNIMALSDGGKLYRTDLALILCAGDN
UniProt Q6P1X6: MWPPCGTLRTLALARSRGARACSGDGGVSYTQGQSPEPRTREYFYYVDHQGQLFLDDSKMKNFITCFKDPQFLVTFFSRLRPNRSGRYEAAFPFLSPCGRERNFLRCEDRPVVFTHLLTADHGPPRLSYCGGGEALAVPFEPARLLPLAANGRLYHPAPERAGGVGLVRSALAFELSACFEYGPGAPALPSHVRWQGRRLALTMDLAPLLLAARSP
UniProt P01024, whole entry, looked up: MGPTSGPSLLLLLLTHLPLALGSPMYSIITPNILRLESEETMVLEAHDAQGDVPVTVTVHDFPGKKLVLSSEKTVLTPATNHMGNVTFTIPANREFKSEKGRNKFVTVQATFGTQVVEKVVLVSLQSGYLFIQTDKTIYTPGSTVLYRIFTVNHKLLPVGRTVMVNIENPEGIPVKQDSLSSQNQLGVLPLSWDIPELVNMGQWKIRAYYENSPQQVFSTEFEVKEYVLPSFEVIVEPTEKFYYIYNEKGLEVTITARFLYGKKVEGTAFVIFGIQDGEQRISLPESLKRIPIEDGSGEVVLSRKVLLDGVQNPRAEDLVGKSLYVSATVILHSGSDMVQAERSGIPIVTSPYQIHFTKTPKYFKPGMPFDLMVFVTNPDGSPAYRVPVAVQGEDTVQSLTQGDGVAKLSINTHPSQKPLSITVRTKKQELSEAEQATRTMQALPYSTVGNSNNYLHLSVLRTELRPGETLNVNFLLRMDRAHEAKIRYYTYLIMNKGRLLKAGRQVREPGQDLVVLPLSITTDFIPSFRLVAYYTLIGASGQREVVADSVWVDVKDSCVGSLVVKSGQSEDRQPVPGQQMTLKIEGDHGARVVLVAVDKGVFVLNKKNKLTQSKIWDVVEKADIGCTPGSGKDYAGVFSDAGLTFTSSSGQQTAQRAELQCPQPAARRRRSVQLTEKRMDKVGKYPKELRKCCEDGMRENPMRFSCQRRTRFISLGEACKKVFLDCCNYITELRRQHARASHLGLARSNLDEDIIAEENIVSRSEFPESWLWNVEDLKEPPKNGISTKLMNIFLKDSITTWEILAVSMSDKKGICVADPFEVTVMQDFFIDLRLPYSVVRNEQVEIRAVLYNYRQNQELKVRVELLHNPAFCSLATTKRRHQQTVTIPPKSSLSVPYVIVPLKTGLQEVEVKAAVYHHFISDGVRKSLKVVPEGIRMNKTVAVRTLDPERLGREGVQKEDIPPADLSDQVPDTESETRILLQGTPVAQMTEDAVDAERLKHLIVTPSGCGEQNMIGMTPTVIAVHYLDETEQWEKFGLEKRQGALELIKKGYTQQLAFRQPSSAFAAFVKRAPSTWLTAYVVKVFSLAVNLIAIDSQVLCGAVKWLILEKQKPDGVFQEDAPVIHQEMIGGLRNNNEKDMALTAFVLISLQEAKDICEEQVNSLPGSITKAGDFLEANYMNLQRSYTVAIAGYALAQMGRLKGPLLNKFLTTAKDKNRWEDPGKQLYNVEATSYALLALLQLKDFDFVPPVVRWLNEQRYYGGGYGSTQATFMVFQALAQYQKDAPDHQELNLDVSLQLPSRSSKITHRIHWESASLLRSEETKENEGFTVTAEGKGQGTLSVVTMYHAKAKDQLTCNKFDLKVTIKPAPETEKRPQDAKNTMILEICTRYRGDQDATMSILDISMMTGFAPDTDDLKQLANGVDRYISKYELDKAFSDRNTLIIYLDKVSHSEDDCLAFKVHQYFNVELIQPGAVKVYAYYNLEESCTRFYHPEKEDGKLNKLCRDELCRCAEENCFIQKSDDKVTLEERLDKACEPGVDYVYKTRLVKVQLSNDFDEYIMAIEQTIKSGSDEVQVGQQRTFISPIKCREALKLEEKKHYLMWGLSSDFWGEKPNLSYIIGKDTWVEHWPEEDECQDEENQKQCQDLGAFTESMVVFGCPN
UniProt O60566, whole entry, looked up: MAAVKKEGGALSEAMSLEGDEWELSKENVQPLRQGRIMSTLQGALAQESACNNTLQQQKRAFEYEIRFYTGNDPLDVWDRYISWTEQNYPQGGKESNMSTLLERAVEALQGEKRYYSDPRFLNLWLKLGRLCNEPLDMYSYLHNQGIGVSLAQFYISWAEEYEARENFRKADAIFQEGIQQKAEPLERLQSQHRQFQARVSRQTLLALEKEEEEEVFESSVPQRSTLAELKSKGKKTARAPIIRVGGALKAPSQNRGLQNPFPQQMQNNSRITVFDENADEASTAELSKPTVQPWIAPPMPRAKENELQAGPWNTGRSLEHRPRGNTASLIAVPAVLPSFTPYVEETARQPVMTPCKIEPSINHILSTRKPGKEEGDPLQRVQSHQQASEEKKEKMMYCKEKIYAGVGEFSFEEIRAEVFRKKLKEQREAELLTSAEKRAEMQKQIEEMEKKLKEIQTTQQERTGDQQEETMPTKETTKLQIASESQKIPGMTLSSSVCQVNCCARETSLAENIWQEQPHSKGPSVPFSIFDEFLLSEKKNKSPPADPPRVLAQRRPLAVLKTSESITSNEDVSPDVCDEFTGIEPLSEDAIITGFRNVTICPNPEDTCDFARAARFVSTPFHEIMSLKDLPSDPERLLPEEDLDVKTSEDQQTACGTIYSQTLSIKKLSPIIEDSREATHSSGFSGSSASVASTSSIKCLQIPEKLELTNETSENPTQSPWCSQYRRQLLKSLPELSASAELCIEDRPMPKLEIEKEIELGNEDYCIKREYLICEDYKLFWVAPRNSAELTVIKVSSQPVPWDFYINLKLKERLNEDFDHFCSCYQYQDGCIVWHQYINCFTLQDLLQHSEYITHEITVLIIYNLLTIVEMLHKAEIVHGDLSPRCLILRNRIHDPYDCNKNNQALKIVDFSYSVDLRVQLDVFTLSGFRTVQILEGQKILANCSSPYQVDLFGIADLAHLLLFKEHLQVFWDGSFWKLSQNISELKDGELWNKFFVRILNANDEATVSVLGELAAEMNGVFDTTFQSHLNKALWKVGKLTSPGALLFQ
UniProt Q7KYR7: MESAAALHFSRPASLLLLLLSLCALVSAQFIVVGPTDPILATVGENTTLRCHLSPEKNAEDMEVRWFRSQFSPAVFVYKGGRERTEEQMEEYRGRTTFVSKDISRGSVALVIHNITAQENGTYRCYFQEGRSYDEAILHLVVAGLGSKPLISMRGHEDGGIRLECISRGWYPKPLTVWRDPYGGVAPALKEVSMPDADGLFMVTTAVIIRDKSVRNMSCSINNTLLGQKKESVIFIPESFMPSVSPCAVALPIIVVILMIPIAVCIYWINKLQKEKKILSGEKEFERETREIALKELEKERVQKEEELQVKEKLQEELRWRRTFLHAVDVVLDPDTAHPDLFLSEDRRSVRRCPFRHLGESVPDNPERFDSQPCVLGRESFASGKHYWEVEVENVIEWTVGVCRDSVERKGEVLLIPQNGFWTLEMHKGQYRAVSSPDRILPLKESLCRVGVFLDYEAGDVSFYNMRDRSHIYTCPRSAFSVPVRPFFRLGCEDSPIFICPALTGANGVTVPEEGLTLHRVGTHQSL
UniProt O43684, whole entry, looked up: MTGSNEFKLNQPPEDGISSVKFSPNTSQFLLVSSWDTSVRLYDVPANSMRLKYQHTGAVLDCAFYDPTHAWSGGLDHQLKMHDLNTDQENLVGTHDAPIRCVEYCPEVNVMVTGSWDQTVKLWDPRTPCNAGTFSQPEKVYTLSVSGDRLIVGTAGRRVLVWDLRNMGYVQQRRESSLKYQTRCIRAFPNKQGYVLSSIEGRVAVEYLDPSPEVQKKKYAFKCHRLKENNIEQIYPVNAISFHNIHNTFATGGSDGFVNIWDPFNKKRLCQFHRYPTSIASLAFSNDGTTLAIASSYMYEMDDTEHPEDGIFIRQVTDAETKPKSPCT
UniProt P41223: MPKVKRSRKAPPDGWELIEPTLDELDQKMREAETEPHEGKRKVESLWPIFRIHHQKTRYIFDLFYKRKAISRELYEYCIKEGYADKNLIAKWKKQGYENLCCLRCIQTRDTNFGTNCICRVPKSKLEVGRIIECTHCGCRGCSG
UniProt Q01518, whole entry, looked up: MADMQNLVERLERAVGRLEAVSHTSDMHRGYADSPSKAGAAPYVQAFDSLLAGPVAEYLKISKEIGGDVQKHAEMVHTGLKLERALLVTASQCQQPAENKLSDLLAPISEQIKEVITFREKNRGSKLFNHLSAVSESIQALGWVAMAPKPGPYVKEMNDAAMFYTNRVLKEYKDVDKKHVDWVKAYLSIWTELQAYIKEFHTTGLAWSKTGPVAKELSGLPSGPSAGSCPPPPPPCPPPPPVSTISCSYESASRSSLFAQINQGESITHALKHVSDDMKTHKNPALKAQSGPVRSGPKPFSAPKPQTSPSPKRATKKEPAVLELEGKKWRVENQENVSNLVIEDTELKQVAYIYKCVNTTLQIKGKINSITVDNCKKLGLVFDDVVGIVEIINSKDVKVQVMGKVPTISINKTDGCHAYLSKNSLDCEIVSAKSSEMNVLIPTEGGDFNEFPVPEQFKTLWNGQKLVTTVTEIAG
UniProt Q9H8G2: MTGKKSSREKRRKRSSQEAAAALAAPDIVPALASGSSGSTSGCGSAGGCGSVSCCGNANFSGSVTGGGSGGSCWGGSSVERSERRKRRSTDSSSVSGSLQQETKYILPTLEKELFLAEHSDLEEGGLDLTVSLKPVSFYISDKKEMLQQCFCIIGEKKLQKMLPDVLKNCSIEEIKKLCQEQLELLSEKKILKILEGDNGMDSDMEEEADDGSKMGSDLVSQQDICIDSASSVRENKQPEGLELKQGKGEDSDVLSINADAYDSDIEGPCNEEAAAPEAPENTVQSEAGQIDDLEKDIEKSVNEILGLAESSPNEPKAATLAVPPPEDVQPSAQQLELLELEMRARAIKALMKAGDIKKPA
UniProt Q9UFG5: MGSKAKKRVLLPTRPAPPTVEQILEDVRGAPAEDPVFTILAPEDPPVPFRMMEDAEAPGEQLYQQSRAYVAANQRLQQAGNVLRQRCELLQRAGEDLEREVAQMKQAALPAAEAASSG

These targets were tested with CC1=C2C(=CC=C1)N=C(N(C2=O)C3=CC=CC=C3C)CN4C=NC5=C(N=CN=C54)N (assay: log2 fold change, soluble protein after heating vs DMSO (PISA); higher = thermal stabilisation; K562 lysate, 10 uM; active = over 0.2 and 3.5 SD of the protein, either way, in both replicates (recomputed)).
Summary of the method: (§1)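 Soluble protein was defined as the supernatant remaining after 21,000xg for 90 min, following pooling of heated aliquots and adjustment to 0.5% NP-40 at 4°C. Before that, crude K562 extract at 1 mg/mL protein in PBS pH 7.4 with 1 mM MgCl2 was treated with 10 μM compound for 30 min and heated for 3 min across 48°C-58°C. Quantification used TMTpro 16plex LC-MS/MS with channel sums equalised, and values are log-two fold changes in thermal stability relative to solvent controls from duplicates.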

| Target | log2 fold change |
| --- | --- |
| CAPZB isoform 2 (UniProt P47756) | inactive: 0.036 |
| C8orf76 (UniProt Q96K31) | inactive: 0.024 |
| CAMKK1 isoform 2 (UniProt Q8N5S9) | inactive: 0.011 |
| BUD23 isoform 3 (UniProt O43709) | inactive: 0.021 |
| C6orf47 (UniProt O95873) | inactive: -0.024 |
| CALB1 (UniProt P05937) | inactive: -0.007 |
| C8orf82 (UniProt Q6P1X6) | inactive: 0.011 |
| C3 (UniProt P01024) | inactive: 0.132 |
| BUB1B isoform 3 (UniProt O60566) | inactive: 0.027 |
| BTN2A1 (UniProt Q7KYR7) | inactive: 0.035 |
| BUB3 (UniProt O43684) | inactive: 0.02 |
| BUD31 (UniProt P41223) | inactive: -0.015 |
| CAP1 (UniProt Q01518) | inactive: -0.024 |
| CAAP1 (UniProt Q9H8G2) | inactive: 0.026 |
| CAPZB (UniProt P47756) | inactive: -0.013 |
| CAND2 (UniProt O75155) | inactive: 0.018 |

Each target was assayed with Cc1sc2c(c1C)C(c1ccc(Cl)cc1)=N[C@@H](CC(=O)OC(C)(C)C)c1nnc(C)n1-2 in the same assay as above.
Summary of the method: as §1

| Target | log2 fold change |
| --- | --- |
| C1orf112 (UniProt Q9NSG2) | inactive: 0.066 |
| CAMK2B (UniProt Q13554) | inactive: -0.056 |
| CAB39 (UniProt Q9Y376) | inactive: 0.007 |
| C9orf78 (UniProt Q9NZ63) | inactive: 0.013 |
| C16orf70 (UniProt Q9BSU1) | inactive: 0.033 |
| CAPNS1 (UniProt P04632) | inactive: 0.057 |
| C15orf41 (UniProt Q9Y2V0) | inactive: 0.084 |
| C18orf25 (UniProt Q96B23) | inactive: 0.017 |
| C1orf52 (UniProt Q8N6N3) | inactive: -0.039 |
| CA2 (UniProt P00918) | inactive: -0.224 |
| BTN3A3 (UniProt O00478) | inactive: -0.12 |
| C19orf53 (UniProt Q9UNZ5) | inactive: -0.016 |
| C1GALT1C1 (UniProt Q96EU7) | inactive: 0.019 |
| C19orf25 (UniProt Q9UFG5) | inactive: -0.061 |
| C20orf27 isoform 2 (UniProt Q9GZN8) | inactive: 0.025 |
| C1orf174 (UniProt Q8IYL3) | inactive: -0.085 |
| CACTIN isoform 2 (UniProt Q8WUQ7) | inactive: 0.024 |
| C3orf38 (UniProt Q5JPI3) | inactive: 0.016 |
| C1orf198 (UniProt Q9H425) | inactive: 0.062 |

| Target | log2 fold change |
| --- | --- |
| C1orf167 isoform 2 (UniProt Q5SNV9) | inactive: -0.133 |
| C6orf89 isoform 2 (UniProt Q6UWU4) | inactive: -0.033 |
| CAPZB isoform 2 (UniProt P47756) | inactive: -0.013 |
| C8orf76 (UniProt Q96K31) | inactive: -0.081 |
| CAMKK1 isoform 2 (UniProt Q8N5S9) | inactive: 0.071 |
| BUD23 isoform 3 (UniProt O43709) | inactive: 0 |
| C6orf47 (UniProt O95873) | inactive: -0.088 |
| CALB1 (UniProt P05937) | inactive: 0 |
| C8orf82 (UniProt Q6P1X6) | inactive: -0.011 |
| C3 (UniProt P01024) | inactive: -0.035 |
| BUB1B isoform 3 (UniProt O60566) | inactive: -0.003 |
| BTN2A1 (UniProt Q7KYR7) | inactive: -0.019 |
| BUB3 (UniProt O43684) | inactive: 0.031 |
| BUD31 (UniProt P41223) | inactive: 0.003 |
| CAP1 (UniProt Q01518) | inactive: 0.039 |
| CAAP1 (UniProt Q9H8G2) | inactive: -0.086 |
| CAPZB (UniProt P47756) | inactive: 0.023 |
| CAND2 (UniProt O75155) | inactive: 0.002 |

What follows are targets tested with c1ccc([C@@H]2C[C@H]2NC2CCNCC2)cc1 in the same assay as above.
Summary of the method: as §1

| Target | log2 fold change |
| --- | --- |
| C1orf112 (UniProt Q9NSG2) | inactive: -0.345 |
| CAMK2B (UniProt Q13554) | inactive: -0.091 |
| CAB39 (UniProt Q9Y376) | inactive: 0.015 |
| C9orf78 (UniProt Q9NZ63) | inactive: 0.033 |
| CAPNS1 (UniProt P04632) | inactive: -0.014 |
| C15orf41 (UniProt Q9Y2V0) | inactive: -0.008 |
| C18orf25 (UniProt Q96B23) | inactive: -0.033 |
| C1orf52 (UniProt Q8N6N3) | inactive: -0.028 |
| BTN3A3 (UniProt O00478) | inactive: 0.12 |
| C19orf53 (UniProt Q9UNZ5) | inactive: 0.052 |
| C1GALT1C1 (UniProt Q96EU7) | inactive: -0.058 |
| C19orf25 (UniProt Q9UFG5) | inactive: 0.033 |
| C20orf27 isoform 2 (UniProt Q9GZN8) | inactive: 0.043 |
| C1orf174 (UniProt Q8IYL3) | inactive: -0.084 |
| CACTIN isoform 2 (UniProt Q8WUQ7) | inactive: 0.066 |
| C3orf38 (UniProt Q5JPI3) | inactive: 0.061 |
| C1orf198 (UniProt Q9H425) | inactive: -0.109 |
| C1orf167 isoform 2 (UniProt Q5SNV9) | inactive: -0.246 |

| Target | log2 fold change |
| --- | --- |
| C6orf89 isoform 2 (UniProt Q6UWU4) | inactive: 0.047 |
| CAPZB isoform 2 (UniProt P47756) | inactive: -0.016 |
| C8orf76 (UniProt Q96K31) | inactive: -0.034 |
| CAMKK1 isoform 2 (UniProt Q8N5S9) | inactive: -0.103 |
| BUD23 isoform 3 (UniProt O43709) | inactive: -0.154 |
| C6orf47 (UniProt O95873) | inactive: -0.055 |
| CALB1 (UniProt P05937) | inactive: 0.044 |
| C8orf82 (UniProt Q6P1X6) | inactive: -0.103 |
| C3 (UniProt P01024) | inactive: -0.03 |
| BUB1B isoform 3 (UniProt O60566) | inactive: 0.02 |
| BTN2A1 (UniProt Q7KYR7) | inactive: 0.024 |
| BUB3 (UniProt O43684) | inactive: -0.002 |
| BUD31 (UniProt P41223) | inactive: 0.082 |
| CAP1 (UniProt Q01518) | inactive: -0.009 |
| CAAP1 (UniProt Q9H8G2) | inactive: -0.085 |
| CAPZB (UniProt P47756) | inactive: 0.028 |
| CAND2 (UniProt O75155) | inactive: 0.042 |
